These are yes or no findings as the source states them, for the method shown. In cells and extracts the contact can be indirect. Some binding calls cover weakened binding; strength is not graded here. For part of these data: Tags and fused reporters may be left off the sequences shown.
T1: Flag-tagged SLMAP (UniProt Q14BN4)
T1 sequence: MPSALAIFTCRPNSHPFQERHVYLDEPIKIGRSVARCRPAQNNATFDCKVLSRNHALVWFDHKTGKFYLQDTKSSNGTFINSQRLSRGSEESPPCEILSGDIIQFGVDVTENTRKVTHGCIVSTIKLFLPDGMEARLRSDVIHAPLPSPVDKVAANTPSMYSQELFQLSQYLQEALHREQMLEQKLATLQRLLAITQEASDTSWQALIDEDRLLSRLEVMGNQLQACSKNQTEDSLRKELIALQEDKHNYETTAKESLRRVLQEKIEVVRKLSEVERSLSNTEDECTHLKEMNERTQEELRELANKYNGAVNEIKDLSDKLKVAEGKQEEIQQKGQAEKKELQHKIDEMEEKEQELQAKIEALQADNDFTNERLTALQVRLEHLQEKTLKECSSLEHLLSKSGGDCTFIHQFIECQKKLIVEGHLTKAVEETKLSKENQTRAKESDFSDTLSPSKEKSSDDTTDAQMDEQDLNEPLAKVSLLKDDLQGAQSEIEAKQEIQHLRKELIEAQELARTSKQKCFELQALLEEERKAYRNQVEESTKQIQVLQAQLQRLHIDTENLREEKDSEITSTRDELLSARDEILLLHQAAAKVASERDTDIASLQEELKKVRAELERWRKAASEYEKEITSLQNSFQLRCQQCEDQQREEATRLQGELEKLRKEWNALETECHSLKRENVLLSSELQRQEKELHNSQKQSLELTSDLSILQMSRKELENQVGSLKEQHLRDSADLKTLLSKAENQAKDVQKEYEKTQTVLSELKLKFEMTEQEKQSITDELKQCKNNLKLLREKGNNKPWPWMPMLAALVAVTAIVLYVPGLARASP

Amino acid sequences for entries named in this document (tags omitted).
UniProt Q8N884: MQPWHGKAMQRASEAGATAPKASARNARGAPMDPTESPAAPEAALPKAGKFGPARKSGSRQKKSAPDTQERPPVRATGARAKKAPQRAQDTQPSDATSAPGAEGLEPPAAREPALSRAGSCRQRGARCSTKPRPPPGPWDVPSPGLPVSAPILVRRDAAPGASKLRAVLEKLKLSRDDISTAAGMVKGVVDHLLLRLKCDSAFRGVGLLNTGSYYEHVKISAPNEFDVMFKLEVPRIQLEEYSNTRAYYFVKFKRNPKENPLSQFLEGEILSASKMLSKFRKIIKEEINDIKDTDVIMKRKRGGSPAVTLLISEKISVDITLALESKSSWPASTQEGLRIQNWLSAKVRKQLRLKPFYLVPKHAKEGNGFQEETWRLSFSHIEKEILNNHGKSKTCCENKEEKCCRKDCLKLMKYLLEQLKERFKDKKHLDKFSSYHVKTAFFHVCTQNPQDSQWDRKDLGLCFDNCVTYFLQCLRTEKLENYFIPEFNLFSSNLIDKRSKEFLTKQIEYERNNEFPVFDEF
UniProt Q86WV6: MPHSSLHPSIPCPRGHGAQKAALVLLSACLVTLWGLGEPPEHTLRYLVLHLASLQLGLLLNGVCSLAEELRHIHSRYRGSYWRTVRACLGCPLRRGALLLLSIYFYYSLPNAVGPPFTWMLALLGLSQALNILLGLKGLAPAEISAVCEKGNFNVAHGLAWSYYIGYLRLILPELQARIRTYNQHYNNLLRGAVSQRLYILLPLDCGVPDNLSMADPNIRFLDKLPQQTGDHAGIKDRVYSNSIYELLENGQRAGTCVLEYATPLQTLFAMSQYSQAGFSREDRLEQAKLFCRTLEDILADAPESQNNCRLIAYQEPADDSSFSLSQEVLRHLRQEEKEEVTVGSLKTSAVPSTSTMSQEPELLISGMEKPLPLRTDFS
UniProt Q5VSL9: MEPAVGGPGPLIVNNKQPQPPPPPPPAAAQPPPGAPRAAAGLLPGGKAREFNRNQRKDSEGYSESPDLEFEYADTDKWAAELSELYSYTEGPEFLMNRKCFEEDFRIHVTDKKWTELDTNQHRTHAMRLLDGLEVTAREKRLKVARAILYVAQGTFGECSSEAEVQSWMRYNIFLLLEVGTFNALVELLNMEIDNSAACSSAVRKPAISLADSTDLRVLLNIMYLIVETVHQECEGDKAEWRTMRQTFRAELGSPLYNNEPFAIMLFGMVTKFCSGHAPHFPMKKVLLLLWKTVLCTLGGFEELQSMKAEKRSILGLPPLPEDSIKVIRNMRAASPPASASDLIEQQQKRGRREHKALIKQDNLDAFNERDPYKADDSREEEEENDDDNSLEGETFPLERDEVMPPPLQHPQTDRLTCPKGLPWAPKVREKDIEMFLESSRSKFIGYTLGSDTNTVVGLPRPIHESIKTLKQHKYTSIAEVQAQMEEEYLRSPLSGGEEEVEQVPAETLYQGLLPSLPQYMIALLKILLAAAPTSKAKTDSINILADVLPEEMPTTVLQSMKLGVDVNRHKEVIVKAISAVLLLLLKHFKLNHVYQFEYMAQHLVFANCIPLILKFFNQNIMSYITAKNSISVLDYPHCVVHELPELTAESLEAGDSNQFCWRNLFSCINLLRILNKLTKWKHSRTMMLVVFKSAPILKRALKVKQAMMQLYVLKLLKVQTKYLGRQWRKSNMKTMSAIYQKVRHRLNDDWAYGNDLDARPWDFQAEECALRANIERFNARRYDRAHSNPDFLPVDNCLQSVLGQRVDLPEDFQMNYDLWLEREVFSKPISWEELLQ

T2: STRN3 (human (endogenous in 293A, HGC-27)) (UniProt Q13033)
T2 sequence: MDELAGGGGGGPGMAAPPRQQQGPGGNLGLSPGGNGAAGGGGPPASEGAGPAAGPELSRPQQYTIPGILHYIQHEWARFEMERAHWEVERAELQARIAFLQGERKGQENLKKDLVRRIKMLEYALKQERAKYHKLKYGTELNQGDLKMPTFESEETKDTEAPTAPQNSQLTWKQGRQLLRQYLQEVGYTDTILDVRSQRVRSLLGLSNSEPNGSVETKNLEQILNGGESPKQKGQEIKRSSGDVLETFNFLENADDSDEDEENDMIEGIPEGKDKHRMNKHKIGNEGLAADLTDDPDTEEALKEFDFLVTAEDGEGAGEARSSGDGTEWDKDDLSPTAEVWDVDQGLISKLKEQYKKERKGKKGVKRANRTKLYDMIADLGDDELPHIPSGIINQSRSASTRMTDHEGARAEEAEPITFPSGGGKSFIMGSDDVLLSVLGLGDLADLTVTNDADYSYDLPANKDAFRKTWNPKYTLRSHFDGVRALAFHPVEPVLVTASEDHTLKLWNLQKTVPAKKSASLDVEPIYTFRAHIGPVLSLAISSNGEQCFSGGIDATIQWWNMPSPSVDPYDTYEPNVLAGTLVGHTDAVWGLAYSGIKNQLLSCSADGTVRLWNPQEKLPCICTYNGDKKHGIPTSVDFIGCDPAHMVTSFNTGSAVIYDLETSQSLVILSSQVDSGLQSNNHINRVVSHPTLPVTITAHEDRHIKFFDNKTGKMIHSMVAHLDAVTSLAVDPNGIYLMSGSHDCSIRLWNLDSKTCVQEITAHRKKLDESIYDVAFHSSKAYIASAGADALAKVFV

T3: Flag-TBK1 (UniProt Q9UHD2)
T3 sequence: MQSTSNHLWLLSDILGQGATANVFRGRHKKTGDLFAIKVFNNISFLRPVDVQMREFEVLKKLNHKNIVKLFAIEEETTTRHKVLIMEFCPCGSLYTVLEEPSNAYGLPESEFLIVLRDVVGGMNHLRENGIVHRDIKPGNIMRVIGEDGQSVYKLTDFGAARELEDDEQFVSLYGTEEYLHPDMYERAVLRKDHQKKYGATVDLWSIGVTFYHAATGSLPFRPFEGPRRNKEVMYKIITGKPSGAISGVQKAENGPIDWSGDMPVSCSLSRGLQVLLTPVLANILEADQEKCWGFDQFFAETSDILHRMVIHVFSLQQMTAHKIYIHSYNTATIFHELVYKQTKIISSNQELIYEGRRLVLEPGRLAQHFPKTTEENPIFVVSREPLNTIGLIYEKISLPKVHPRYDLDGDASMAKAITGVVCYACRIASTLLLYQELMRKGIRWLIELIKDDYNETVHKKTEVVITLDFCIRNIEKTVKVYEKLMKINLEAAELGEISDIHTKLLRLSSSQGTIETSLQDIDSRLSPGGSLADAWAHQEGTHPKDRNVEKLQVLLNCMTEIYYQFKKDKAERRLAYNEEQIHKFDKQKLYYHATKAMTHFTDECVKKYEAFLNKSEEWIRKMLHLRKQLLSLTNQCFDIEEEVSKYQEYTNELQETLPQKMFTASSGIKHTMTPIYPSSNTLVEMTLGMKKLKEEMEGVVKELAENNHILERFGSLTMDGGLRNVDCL

T4: STRN3 (in vitro pulldown assays) (UniProt Q13033)
T4 sequence: T2 sequence

B1: suppressor of IKBKE 1 (SIKE1) (protein, UniProt Q9BRV8 1-207)
chain: MSCTIEKILTDAKTLLERLREHDAAAESLVDQSAALHRRVAAMREAGTALPDQYQEDASDMKDMSKYKPHILLSQENTQIRDLQQENRELWISLEEHQDALELIMSKYRKQMLQLMVAKKAVDAEPVLKAHQSHSAEIESQIDRICEMGEVMRKAVQVDDDQFCKIQEKLAQLELENKELRELLSISSESLQARKENSMDTASQAIK
B2: sarcolemma membrane–associated protein (SLMAP) (protein, UniProt Q14BN4 1-828)
chain: T1 sequence
B3: SIKE1 (in vitro pulldown assay) (protein, UniProt Q9BRV8 1-207)
chain: B1 chain

Legend:
[1] = target: T1, Flag-tagged SLMAP; test: co-IP; Flag-SLMAP transfected cells (293FT in the legend, 293A in the text); IR or etoposide, harvested 2 hours after treatment
[2] = target: T2, STRN3 (human (endogenous in 293A, HGC-27)); test: co-IP; BGC-823 cells with or without SAIP-1 or SAIP-2; interactions of STRN3 (Supplemental Figure 10D)
[3] = target: T2, STRN3 (human (endogenous in 293A, HGC-27)); test: co-IP; STRN3 IP from 293A and HGC-27 cells; 10 μM etoposide for 1 hour, collected at time points after removal of the drug
[4] = target: T3, Flag-TBK1; test: co-IP; Flag-TBK1 transfected 293FT cells; DNA damage or cGAMP, IP 2 hours after treatment; TBK1 inhibitors MRT or AA-673 greatly attenuated the association
[5] = target: T4, STRN3 (in vitro pulldown assays); test: pull-down; in vitro pulldown of STRN3 and SIKE1 with increasing doses of SAIP-2 (Supplemental Figure 10C)

| Molecule | binding [1] | binding [2] | binding [3] | further results |
| --- | --- | --- | --- | --- |
| cyclic GMP-AMP synthase (cGAS) (from UniProt Q8N884 1-522) | no binding | – | – | – |
| stimulator of IFN genes (STING) (from UniProt Q86WV6 1-379) | no binding | – | – | – |
| striatin-interacting protein 1 (STRIP1) (from UniProt Q5VSL9 1-837) | – | binds | – | – |
| B1 | – | binds | binds | binding [4]: binds |
| B2 | – | binds | binds | – |
| B3 | – | – | – | binding [5]: binds |

— publication PMC9057599
